Experimental data: publication doi:10.1101/2025.10.16.682774 (bioRxiv, 2025)
Residue numbers refer to the chain shown, from its start. Results are given in words; binding and its absence hold for the method and conditions named. In cells and extracts the contact can be indirect. These calls come from enrichment with a bait or labelling near it, and not all partners need be listed. For some assays here: No binding means not detected with the bait. For some assays here: Where a sequence is shown, tags or fusion partners need not be part of it.

Sequences of proteins named here, by UniProt entry; tags and fusion partners are left off.
UniProt Q96SN8: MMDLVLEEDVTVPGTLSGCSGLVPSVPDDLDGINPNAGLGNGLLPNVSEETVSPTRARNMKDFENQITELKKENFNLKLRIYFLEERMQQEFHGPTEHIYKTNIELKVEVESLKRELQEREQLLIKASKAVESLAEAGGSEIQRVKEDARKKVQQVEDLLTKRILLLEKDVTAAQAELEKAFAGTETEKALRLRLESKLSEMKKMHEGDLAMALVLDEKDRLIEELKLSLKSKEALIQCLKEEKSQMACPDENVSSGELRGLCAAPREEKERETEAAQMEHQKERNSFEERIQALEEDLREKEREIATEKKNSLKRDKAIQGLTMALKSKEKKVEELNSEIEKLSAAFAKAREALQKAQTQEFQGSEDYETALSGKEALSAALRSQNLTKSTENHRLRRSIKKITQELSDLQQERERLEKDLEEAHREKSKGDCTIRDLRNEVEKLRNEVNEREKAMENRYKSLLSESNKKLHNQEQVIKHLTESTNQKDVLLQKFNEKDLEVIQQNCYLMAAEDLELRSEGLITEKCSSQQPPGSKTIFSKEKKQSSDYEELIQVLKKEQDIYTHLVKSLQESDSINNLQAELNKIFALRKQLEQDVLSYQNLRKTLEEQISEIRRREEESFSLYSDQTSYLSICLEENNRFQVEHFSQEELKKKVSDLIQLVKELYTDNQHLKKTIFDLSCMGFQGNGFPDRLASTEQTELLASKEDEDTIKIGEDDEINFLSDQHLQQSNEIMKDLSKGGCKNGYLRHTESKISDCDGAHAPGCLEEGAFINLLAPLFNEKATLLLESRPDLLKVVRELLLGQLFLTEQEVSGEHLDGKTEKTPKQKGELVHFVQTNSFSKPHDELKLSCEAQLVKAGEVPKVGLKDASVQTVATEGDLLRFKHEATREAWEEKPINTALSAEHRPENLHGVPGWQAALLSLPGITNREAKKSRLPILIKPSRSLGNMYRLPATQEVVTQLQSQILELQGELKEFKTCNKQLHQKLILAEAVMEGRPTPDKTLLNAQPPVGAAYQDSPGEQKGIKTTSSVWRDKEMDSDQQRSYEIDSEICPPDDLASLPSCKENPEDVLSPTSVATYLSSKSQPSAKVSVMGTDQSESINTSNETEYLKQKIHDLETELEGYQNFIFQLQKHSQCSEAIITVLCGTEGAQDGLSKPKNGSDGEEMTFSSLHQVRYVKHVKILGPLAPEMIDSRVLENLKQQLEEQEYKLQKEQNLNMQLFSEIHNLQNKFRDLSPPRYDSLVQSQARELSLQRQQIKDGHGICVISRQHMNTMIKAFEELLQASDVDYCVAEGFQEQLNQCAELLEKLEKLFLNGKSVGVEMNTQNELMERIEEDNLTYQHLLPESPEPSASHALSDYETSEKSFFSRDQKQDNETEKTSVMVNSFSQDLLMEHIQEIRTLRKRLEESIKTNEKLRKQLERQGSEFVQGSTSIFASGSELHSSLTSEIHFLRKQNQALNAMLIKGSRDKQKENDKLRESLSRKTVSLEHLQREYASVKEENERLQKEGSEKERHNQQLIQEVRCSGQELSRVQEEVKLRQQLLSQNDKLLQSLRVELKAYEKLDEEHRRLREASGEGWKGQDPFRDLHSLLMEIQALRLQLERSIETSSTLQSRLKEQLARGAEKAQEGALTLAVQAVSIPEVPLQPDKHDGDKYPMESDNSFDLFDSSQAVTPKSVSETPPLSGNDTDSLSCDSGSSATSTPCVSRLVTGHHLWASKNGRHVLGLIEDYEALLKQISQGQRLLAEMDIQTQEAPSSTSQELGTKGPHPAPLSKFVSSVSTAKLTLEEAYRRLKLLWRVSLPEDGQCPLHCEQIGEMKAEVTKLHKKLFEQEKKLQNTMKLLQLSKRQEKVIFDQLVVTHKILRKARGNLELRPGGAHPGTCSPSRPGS
UniProt Q99996: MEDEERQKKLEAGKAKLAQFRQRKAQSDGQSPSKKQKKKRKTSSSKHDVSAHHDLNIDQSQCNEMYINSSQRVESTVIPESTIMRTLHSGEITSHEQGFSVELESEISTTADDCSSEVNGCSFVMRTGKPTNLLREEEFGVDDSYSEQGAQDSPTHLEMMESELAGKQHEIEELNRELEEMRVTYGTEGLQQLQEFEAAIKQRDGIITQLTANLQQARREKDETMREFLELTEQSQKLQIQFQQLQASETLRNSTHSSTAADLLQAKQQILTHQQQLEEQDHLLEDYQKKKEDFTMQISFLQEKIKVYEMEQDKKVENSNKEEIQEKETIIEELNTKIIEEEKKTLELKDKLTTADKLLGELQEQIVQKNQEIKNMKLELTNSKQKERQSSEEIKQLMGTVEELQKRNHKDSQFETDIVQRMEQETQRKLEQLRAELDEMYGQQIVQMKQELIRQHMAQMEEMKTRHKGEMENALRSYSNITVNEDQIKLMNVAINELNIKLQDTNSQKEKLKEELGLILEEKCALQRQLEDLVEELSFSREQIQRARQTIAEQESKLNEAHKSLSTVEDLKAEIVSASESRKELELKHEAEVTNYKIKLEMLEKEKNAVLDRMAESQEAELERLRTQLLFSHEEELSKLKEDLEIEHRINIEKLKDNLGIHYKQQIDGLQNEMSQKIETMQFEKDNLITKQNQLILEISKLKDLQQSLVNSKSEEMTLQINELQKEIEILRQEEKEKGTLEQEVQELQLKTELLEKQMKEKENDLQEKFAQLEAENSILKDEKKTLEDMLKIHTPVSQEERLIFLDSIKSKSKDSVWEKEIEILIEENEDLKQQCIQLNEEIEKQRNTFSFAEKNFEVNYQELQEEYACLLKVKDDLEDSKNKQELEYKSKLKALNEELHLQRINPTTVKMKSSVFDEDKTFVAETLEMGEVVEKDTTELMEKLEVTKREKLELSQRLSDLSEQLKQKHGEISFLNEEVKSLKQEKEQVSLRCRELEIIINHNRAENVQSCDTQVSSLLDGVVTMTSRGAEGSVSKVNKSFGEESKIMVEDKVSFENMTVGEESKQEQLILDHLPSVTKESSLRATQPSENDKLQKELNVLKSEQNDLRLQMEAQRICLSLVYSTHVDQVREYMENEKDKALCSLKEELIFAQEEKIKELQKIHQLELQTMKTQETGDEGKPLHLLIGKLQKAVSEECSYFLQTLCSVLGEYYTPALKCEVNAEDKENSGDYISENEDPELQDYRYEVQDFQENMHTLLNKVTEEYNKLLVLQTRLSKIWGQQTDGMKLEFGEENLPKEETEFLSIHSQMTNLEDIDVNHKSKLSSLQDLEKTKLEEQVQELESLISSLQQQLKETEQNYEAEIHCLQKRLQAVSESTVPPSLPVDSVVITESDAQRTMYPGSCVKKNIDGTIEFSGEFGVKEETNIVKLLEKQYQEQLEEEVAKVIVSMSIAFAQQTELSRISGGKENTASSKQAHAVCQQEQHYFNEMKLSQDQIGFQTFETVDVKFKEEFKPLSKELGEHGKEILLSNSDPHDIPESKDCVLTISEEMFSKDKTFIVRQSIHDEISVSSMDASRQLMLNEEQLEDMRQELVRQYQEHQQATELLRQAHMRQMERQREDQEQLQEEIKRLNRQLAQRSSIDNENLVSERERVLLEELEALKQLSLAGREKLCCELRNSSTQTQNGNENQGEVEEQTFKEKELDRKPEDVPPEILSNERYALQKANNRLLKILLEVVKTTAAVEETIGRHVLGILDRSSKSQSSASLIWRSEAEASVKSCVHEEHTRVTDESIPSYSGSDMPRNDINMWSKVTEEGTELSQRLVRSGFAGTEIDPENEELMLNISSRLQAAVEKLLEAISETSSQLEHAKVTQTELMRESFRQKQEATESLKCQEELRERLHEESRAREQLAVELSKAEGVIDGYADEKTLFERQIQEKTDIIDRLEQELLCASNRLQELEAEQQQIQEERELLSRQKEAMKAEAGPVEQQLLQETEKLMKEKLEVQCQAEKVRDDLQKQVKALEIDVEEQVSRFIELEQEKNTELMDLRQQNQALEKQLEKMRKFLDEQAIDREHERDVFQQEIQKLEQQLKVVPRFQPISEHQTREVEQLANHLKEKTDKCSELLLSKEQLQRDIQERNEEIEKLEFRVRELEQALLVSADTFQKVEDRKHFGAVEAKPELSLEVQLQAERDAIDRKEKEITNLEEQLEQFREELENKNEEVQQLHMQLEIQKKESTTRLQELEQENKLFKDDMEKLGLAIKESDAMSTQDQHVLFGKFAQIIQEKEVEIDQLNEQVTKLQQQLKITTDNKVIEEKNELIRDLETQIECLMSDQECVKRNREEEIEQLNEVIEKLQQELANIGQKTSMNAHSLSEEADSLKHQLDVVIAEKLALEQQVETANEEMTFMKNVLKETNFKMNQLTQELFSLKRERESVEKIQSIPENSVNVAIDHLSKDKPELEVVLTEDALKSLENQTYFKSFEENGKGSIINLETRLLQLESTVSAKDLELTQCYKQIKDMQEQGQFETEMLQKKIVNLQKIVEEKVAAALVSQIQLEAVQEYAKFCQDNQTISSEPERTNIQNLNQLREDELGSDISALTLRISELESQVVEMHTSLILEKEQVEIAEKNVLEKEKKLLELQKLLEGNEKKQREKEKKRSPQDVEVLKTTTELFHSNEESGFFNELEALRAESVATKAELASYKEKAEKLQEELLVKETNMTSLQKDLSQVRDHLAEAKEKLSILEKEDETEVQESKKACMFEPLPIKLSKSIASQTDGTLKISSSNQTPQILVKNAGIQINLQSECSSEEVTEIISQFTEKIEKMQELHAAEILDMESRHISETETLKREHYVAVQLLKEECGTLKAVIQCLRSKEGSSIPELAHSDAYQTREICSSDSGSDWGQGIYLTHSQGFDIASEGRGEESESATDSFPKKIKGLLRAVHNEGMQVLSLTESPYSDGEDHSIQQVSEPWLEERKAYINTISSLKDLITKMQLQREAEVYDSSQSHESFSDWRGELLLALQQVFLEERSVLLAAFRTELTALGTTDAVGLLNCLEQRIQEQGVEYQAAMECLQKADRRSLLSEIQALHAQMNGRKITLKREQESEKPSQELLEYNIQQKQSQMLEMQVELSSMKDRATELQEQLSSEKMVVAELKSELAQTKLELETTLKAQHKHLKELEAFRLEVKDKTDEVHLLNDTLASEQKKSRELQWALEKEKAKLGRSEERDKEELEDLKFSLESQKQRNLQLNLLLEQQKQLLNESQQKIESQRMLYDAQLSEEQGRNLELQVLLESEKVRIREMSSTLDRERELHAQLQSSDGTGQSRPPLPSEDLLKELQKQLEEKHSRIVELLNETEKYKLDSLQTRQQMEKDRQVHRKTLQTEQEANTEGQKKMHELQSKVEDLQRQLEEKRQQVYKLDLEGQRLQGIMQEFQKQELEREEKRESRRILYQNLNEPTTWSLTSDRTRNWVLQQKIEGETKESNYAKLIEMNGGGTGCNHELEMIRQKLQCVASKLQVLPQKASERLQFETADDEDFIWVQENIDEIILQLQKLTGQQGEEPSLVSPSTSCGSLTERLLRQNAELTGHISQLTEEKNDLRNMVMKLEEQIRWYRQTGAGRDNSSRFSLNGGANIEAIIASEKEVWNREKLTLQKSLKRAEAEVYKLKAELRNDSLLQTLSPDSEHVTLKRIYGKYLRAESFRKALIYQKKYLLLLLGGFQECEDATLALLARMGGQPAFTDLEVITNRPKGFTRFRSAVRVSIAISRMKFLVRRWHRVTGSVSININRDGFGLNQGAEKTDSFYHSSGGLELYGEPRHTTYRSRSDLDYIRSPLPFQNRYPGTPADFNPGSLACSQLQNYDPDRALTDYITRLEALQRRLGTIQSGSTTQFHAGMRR
UniProt Q9BQQ3: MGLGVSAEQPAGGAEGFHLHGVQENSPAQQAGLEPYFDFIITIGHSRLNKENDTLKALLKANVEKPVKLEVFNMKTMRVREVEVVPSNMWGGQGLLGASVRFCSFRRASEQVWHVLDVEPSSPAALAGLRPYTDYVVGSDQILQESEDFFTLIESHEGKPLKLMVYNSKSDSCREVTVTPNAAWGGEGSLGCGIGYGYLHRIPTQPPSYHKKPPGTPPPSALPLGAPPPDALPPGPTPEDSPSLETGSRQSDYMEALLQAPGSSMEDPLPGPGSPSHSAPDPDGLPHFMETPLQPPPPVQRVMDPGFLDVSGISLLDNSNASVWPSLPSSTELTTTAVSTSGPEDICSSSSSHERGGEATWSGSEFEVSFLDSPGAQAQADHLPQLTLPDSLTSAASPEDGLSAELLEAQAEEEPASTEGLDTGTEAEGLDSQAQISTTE

T1: full-length p115-GFP (human) (UniProt O60763)
T1 sequence: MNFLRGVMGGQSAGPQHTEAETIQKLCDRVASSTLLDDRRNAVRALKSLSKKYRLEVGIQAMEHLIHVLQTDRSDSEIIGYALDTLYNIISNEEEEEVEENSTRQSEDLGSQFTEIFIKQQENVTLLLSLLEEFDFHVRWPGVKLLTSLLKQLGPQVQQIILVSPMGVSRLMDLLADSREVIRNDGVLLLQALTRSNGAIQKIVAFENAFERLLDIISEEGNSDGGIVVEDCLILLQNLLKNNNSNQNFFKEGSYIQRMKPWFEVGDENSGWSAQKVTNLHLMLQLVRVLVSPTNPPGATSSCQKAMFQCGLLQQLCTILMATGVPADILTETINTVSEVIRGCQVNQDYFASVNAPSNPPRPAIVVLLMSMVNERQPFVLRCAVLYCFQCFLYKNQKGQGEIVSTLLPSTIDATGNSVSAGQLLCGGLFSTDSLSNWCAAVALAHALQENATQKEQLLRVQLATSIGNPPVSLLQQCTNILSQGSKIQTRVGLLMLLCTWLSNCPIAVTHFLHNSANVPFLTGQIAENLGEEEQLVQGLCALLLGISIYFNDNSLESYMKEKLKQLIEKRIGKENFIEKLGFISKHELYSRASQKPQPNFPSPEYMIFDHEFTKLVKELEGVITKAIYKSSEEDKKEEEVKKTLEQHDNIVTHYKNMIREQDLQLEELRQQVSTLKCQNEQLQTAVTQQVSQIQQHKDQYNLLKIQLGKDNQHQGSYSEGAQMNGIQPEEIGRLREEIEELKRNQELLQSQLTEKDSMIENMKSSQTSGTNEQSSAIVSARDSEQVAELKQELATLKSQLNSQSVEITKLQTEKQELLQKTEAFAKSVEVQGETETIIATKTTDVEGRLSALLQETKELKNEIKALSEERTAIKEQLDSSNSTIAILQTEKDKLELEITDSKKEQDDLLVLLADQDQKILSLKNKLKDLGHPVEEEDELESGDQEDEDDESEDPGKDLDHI

T2: full-length p115-GFP Q462D (human) (UniProt O60763)
T2 sequence: T1 sequence with Q462D

B1: GM130 (protein, UniProt Q08379 1-1002)
chain: MWPQPRLPPRPAMSEETRQSKLAAAKKKLREYQQRNSPGVPTGAKKKKKIKNGSNPETTTSGGCHSPEDTPKDNAATLQPSDDTVLPGGVPSPGASLTSMAASQNHDADNVPNLMDETKTFSSTESLRQLSQQLNGLVCESATCVNGEGPASSANLKDLESRYQQLAVALDSSYVTNKQLNITIEKLKQQNQEITDQLEEEKKECHQKQGALREQLQVHIQTIGILVSEKAELQTALAHTQHAARQKEGESEDLASRLQYSRRRVGELERALSAVSTQQKKADRYNKELTKERDALRLELYKNTQSNEDLKQEKSELEEKLRVLVTEKAGMQLNLEELQKKLEMTELLLQQFSSRCEAPDANQQLQQAMEERAQLEAHLGQVMESVRQLQMERDKYAENLKGESAMWRQRMQQMSEQVHTLREEKECSMSRVQELETSLAELRNQMAEPPPPEPPAGPSEVEQQLQAEAEHLRKELEGLAGQLQAQVQDNEGLSRLNREQEERLLELERAAELWGEQAEARRQILETMQNDRTTISRALSQNRELKEQLAELQSGFVKLTNENMEITSALQSEQHVKRELGKKLGELQEKLSELKETVELKSQEAQSLQQQRDQYLGHLQQYVAAYQQLTSEKEVLHNQLLLQTQLVDQLQQQEAQGKAVAEMARQELQETQERLEAATQQNQQLRAQLSLMAHPGEGDGLDREEEEDEEEEEEEAVAVPQPMPSIPEDLESREAMVAFFNSAVASAEEEQARLRGQLKEQRVRCRRLAHLLASAQKEPEAAAPAPGTGGDSVCGETHRALQGAMEKLQSRFMELMQEKADLKERVEELEHRCIQLSGETDTIGEYIALYQSQRAVLKERHREKEEYISRLAQDKEEMKVKLLELQELVLRLVGDRNEWHGRFLAAAQNPADEPTSGAPAPQELGAANQQGDLCEVSLAGSVEPAQGEAREGSPRDNPTAQQIMQLLREMQNPRERPGLGSNPCIPFFYRADENDEVKITVI

Assays:
Assay in all cases: affinity purification with mass spectrometry
[1] = target: T1, full-length p115-GFP (human)
p115-tail-GFP (human) = target: p115-tail-GFP (human)
[2] = target: T2, full-length p115-GFP Q462D (human)

| Molecule | binding [1] | binding (p115-tail-GFP (human)) | binding [2] |
| --- | --- | --- | --- |
| CDK5RAP2 (from UniProt Q96SN8 1-1893) | binds | – | – |
| Sec31 (human (endogenous in HEK293T)) | no binding | – | – |
| AKAP9 (from UniProt Q99996 1-3907) | binds | – | – |
| GRASP65 (from UniProt Q9BQQ3 1-440) | binds | – | – |
| PCM1 (from UniProt Q15154 1-2024) | binds | – | – |
| B1 | binds | binds | binds |
